The values that follow come from paper PMC5741267.

No constants are given. Whether binding was seen depends on the method and setting. Some binding calls cover weakened binding; strength is not graded here. Tags and fused reporters may be left off the sequences shown.

The target of experiment [1] is T1, PUF repeats of FBF-1 (a.a. 121-614) fused to LexA DNA binding domain (C. elegans) (UniProt Q9N5M6).
T1 sequence: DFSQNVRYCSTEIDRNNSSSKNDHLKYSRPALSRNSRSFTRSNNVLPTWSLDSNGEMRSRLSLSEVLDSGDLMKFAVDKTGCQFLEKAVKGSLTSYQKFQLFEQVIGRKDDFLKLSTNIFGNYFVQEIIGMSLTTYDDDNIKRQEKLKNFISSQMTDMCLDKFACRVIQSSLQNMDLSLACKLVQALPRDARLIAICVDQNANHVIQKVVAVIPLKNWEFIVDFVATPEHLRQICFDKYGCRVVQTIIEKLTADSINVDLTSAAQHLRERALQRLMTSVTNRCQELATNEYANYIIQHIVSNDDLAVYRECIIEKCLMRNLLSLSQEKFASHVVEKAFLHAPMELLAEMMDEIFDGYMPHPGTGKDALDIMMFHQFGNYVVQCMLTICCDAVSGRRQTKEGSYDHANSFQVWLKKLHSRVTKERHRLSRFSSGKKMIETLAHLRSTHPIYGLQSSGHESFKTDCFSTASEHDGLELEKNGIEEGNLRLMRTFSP
In words: two-hybrid; SYGL-1 or LST-1 fused to Gal4 AD, PUF repeats of FBF-1 or FBF-2 fused to LexA BD; L40-ura yeast; growth on SD -Leu -Trp -His with 50 mM 3-AT, 4 days at 30°C (HIS3 reporter).

The target of experiment [2] is T2, PUF repeats of FBF-2 (a.a. 121-632) fused to LexA DNA binding domain (C. elegans) (UniProt Q09312).
T2 sequence: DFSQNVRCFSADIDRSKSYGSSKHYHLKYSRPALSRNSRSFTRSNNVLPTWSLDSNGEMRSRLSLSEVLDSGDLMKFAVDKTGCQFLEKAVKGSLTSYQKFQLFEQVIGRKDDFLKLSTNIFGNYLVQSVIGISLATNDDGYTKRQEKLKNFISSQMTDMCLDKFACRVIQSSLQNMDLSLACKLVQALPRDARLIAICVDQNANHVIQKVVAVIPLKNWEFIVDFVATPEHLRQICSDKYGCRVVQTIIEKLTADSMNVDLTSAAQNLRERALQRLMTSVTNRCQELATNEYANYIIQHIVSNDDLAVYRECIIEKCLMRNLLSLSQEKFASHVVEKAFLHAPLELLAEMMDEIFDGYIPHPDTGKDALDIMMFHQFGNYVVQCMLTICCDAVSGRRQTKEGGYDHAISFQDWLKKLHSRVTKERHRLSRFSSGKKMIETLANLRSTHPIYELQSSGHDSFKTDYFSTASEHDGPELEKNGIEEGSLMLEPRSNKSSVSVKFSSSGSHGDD
The experiment is described as above.

B1: LST-1 full length (a.a. 1-328) fused to Gal4 activation domain (protein, UniProt P91820 1-328)
chain: MCSTFILPPRRNNCNKSSSTIAYSKSQHEAPKQLLQLRSEIKPLIPLNQPSNFWESSQDSGVLSSLSSSPQQRSGLRSQKLHLTYIEKNKRVRAMIPQQQHYHAFDRPTHYNSRKTSGPPPLMRTPSSGFSSASSSENMFSGLTLSDNENKIHEIMDPSVDVDLDMFLLPDCRYKQPVQPSTSTSRNNVSQISGSSRLNGSTRHVAPIVPKVAMPSELSYANVKRSSGYVDYMPTTYNSNVTSNSSAASVPMSPGTWVRCHYCWESYVKLCQRVANLEPLISCDGPWNWHTLYDMQGRVTCPRLWFAQLDRAGSEMVEQMGHARNVPV
For the molecule B1, the binding entry in experiment [1] and in experiment [2] was “binds” each time.
